According to article PMC10946950, “Stretching the Bisalkyne Raman Spectral Palette Reveals a New Electrophilic Covalent Motif” (Chemistry (Weinheim an Der Bergstrasse, Germany), 2023):
Some ranges recur; such a range may be that of the whole group of compounds.

Key:
[1] = Spontaneous Raman spectroscopy, relative intensity compared to internal standard EdU; type: physicochemical; settings: 10 mM DMSO sample solutions vs internal standard EdU (100 mM)
Description: (§1) 4. Spontaneous Raman Spectroscopy
(§2) Spontaneous Raman spectra of individual compounds in DMSO (10 mM) or in combination with internal standard EdU (100 mM)
(§3) were acquired from sample droplets. The raw spectra were baseline corrected using the Zhangfit method, and further smoothened
(§4) and normalized using Origin 9.6.0.172 (OriginLab Corporation).[57]
(§5) Figure S1. (a) Full spontaneous Raman spectra (500 cm-1 to 3000 cm-1) of DMSO solutions of Het-DY (10 mM) with internal standard EdU (100 mM).
(§6) Tags 3i, 3l and 3n were excluded because of insufficient pure fractions available to acquire good signal intensities. Raman signal of EdU (2112 cm-1)
(§7) was normalized to 1; (b) Zoom in of (a) between 2080 cm -1 and 2260 cm-1 highlighting the relative intensities of tags 3a-3h, 3j, 3k and 3m compared
(§8) to EdU and to each other.
(§9) 5. Sample Preparation for SRS microscopy, Image Acquisition and Analysis
(§10) Cell Culture: Human ovarian cancer cell line ES2 or HeLa cells was purchased from the American Type Culture Collection, and cells
(§11) maintained in a humidified incubator at 37°C and 5% CO2 in Dulbecco’s Modified Eagle Medium (high glucose, Pyruvate, L-
(§12) Glutamine) (SIGMA, cat#D6429) and 10% FCS. Cells were plated into Fluorodish Cell Culture Dishes (World Precision Instruments,
(§13) cat#FD-35-100) for 24 hours before treatment with compound. Details of the dosing concentrations and dosing times are provided in
(§14) the figure legends. For multi-modal imaging experiments cells were treated with either Wheat Germ Agglutinin Alexa Fluor 594
(§15) Conjugate (ThermoFisher cat#W11262), LysoTracker Red DND-99 (ThermoFisher cat#L7528), MitoTracker Red CMXRos
(§16) (ThermoFisher cat#M7512) or Nile Red (Merck cat#72485) made up as per instructions with matching SRS probe. BADY and Het-
(§17) DY probes were made up in DMSO. All dilutions were made in culture media and cells imaged live.
(§18) Two-photon fluorescence and stimulated Raman scattering (SRS) microscopy. Images were acquired using a custom-built
(§19) multi-modal microscope setup. A picoEmerald S (APE, Berlin, Germany) laser provided both a tunable pump laser (700–990 nm, 1.6
(§20) ps, 80 MHz repetition rate) and a spatially and temporally overlapped Stokes laser (1031 nm, 1.8 ps, 80 MHz repetition rate). The
(§21) output beams were inserted into the scanning unit of an Olympus FV1000MPE microscope using a series of dielectric mirrors and a
(§22) 4× lens based beam -expanding module. The resulting 3.4 mm beams were expanded by a furthe r 3.6 lens within the microscope
(§23) and directed into an Olympus XLPL25XWMP N.A. 1.05 objective lens using a short -pass 690 nm dichroic mirror (Olympus).
(§24) Backscattered emission signals from two -photon fluorescence was separated from any reflected excitation light using a short-pass
690 nm dichroic mirror and IR cut f ilter (Olympus). A series of filters and dichroic mirrors (FF552-Di02, and FF440/520-Di01
(Semrock) and HQ610/75m (Chroma) were then used to deconvolve the different emission signals onto an available photo-multiplier
For SRS measurements, the Stokes beam was modulated with a 20 MHz EoM built into the picoEmerald S. Forward scattered light
was collected by a 25× Olympus XLPL25XWMP N.A. 1.05 objective lens and Stokes light was removed by filtering with an
ET890/220m filter (Chroma). A telescope focused the light onto an APE silicon photodiode connected to an APE lock in amplifier with
the time constant set to 20 µs The lock in amplifier signal was fed into an Olympus FV10-Analog unit. Images at different wavelengths
were acquired sequentially by changing the pump laser wavelength. Fluorescence images where acquired at the alkyne wavelength
pump tuning with a 4 µs pixel dwell time whilst SRS images were recorded with a 20 µs pixel dwell. Laser powers after the objective
(1 picture or pasted object on this page, not shown here)

[2] = system: ES2 cells; assay: SRS imaging of cellular uptake and localization; type: cell-based, Human; settings: for intracellular localization/distribution (SRS images): 100 μM compound
Description: Figure 4 SRS images of ES2 cells treated with a) BADY, b) 3 f and c) 3 a were taken at three different wavenumbers: CH3, proteins 2942 cm^−1 – grey scale; CH2, lipids 2866 cm^−1 – magenta; and C≡C, alkyne, images taken at 2215 cm^−1/2208 cm^−1 with an off‐resonance image taken ∼30 cm^−1 away subtracted – cyan hot. Cells were treated with 100 μM compound for 1 h. Scale bars: 10 μm.
Figure 5 SRS images of ES2 cells treated with a) Lyso‐Het‐DY (300 μM, 1 h) and b) LD‐Het‐DY (10 μM, 24 h). Images were taken at: CH3, proteins 2942 cm^−1 — grey scale; CH2, lipids 2866 cm^−1 — magenta and C≡C, alkyne, images taken at 2208/2215 cm^−1 with an off‐resonance image taken ∼30 cm^−1 away subtracted – cyan hot. Scale bars: 10 μm.
as §1, §2, §3, §4, §5, §6, §7, §8, §9, §10, §11, §12, §13, §14, §15, §16, §17, §18, §19, §20, §21, §22, §23, §24
690 nm dichroic mirror and IR cut f ilter (Olympus). […]

Row | Compound | Relative Imaging Intensity Compared to EdU [RIE] [1] | also measured
1 | COC(=O)c1ccc(C#CC#Cc2cncn2C)n1C [3 a] | + (++ and+represent RIE ranges of 20–30 and 10–20, respectively) | intracellular localization/distribution (SRS images) ([2]; 1 h): predominantly in the cytoplasm
2 | COC(=O)c1ccc(C#CC#Cc2cncn2C)cc1 [3 b] | + (++ and+represent RIE ranges of 20–30 and 10–20, respectively) | 
3 | COC(=O)c1ccc(C#CC#Cc2cscn2)cc1 [3 c] | + (++ and+represent RIE ranges of 20–30 and 10–20, respectively) | 
4 | COC(=O)c1ccc(C#CC#Cc2nccs2)cc1 [3 d] | ++ (++ and+represent RIE ranges of 20–30 and 10–20, respectively) | 
5 | COC(=O)c1ccc(C#CC#Cc2ccccn2)cc1 [3 e] | ++ (++ and+represent RIE ranges of 20–30 and 10–20, respectively) | 
6 | COC(=O)c1ccc(C#CC#Cc2cccnc2)cc1 [3 f] | ++ (++ and+represent RIE ranges of 20–30 and 10–20, respectively) | intracellular localization/distribution (SRS images) ([2]; 1 h): unchanged compared to BADY
7 | COC(=O)c1ccc(C#CC#Cc2ccncc2)cc1 [3 g] | ++ (++ and+represent RIE ranges of 20–30 and 10–20, respectively) | 
8 | COC(=O)c1ccc(C#CC#Cc2ccccc2)nc1 [3 h] | + (++ and+represent RIE ranges of 20–30 and 10–20, respectively) | 
9 | COC(=O)c1ccc(C#CC#Cc2ncccn2)nc1 [3 j] | + (++ and+represent RIE ranges of 20–30 and 10–20, respectively) | 
10 | COC(=O)c1ccc(C#CC#Cc2cnccn2)nc1 [3 m] | + (++ and+represent RIE ranges of 20–30 and 10–20, respectively) | 
11 | Cn1cncc1C#CC#Cc1ccc(C(=O)NCCN2CCOCC2)n1C [8 a] |  | intracellular localization (SRS images) ([2]; 300 μM, 1 h): enriched in lysosomal
12 | O=C(O)CCCCCCCCCCNC(=O)c1ccc(C#CC#Cc2cccnc2)cc1 [8 f] |  | intracellular localization (SRS images) ([2]; 10 μM, 24 h): lipid rich regions
13 | C(C#Cc1ccccc1)#Cc1ccccc1 [BADY, reference compound] | ++ (++ and+represent RIE ranges of 20–30 and 10–20, respectively) | intracellular localization/distribution (SRS images) ([2]; 1 h): accumulates in lipid droplets
